Measured values taken from US11230581B2, “Peptides and combination of peptides for use in immunotherapy against ovarian cancer and other cancers” (Immatics Biotechnologies GmbH, priority 2015, dated 2022).
For some assays here: Expression values are those of the mRNA of the gene that encodes the peptide; a gene is named only where it was looked up.

Experiments:
NSCLC tumor samples = experiment: Absolute quantitation of TUMAP copies per cell (nanoLC-MS/MS, isolation efficiency, DNA-based cell count); set-up: species or system human; conditions: absolute peptide quantitation in NSCLC tumor samples
additional tumor types = experiment: LC-MS detection and over-presentation of the peptides on additional tumor types, cell lines and primary cultures; set-up: species or system human; conditions: for Other relevant organs/ cancerous diseases: Table 4A: additional tumor types on which the peptide was found, over-presented on more than 5% of measured tumor samples, or presented on more than 5% with ratio of geometric means tumor vs normal tissues larger than 3
ovarian cancer samples = experiment: Relative LC-MS quantitation of HLA-presented peptides: presentation and over-presentation on ovarian cancer vs a panel of normal tissues (presentation score); set-up: species or system human; key: +++: very highly over-presented on tumors compared to a panel of normal tissues; ++: highly over-presented on tumors compared to a panel of normal tissues; +: over-presented on tumors compared to a panel of normal tissues; conditions: over-presentation on tumors compared to a panel of normal tissues
[1] = test system: source genes of the peptides (mRNA) in ovarian cancer vs normal tissues; experiment: Expression profiling of genes encoding the peptides (RNAseq, expression score); set-up: species or system human; key: +++: very highly over-expressed in tumors compared to a panel of normal tissues; ++: highly over-expressed in tumors compared to a panel of normal tissues; +: over-expressed in tumors compared to a panel of normal tissues; conditions: source gene over-expression in tumors compared to a panel of normal tissues
[2] = additional tumor types with over-presentation on more than 5% of the measured tumor samples, or presentation on more than 5% with ratio of geometric means tumor vs normal tissues larger than 3
[3] = amendment of Table 4: additional tumor types showing over-presentation (including specific presentation) on more than 5% of measured tumor samples, or presentation on more than 5% with ratio of geometric means tumor vs normal tissues larger than 3

Substance | Copy Number Category (median number of copies per cell) (NSCLC tumor samples) | Other relevant organs/ cancerous diseases (additional tumor types) | Additional organs/cancerous diseases (additional tumor types; [2]) | Peptide Presentation (presentation score) (ovarian cancer samples) | Additional organs/cancerous diseases (additional tumor types; [3]) | Gene Expression (expression score) [1]
408 (VLDDSIYLV; listed as Homo sapiens) [compound 408] | ++ (>= 100 = ++) | Leukemia | CLL, Uterine Cancer, NHL |  |  | 
587 (VMNDRLYAI; listed as Homo sapiens) [compound 587] | ++ (>= 100 = ++) | Leukemia | CLL, NHL |  |  | 
11 (KIFEMLEGV; listed as Homo sapiens) [compound 11] | ++ (>= 100 = ++) | NSCLC |  | +++ | Gallbladder Cancer and Bile Duct Cancer | 
465: peptide found in KIFC1 (gene looked up) (QLCDLNAEL; listed as Homo sapiens) [compound 465] |  | HCC, Esophageal Cancer | SCLC, Melanoma, AML, HNSCC | +++ |  | ++
443: peptide found in HDGF (gene looked up) (GLWEIENNPTV; listed as Homo sapiens) [compound 443] |  | NSCLC, SCLC, HCC, PC, PrC, Melanoma | Gallbladder Cancer and Bile Duct Cancer | ++ |  | +
595: peptide found in TAP1 (gene looked up) (VLLSIYPRV; listed as Homo sapiens) [compound 595] |  | NSCLC, SCLC, RCC, Leukemia, BrCa | CLL, Urinary Bladder Cancer, Gallbladder Cancer and Bile Duct Cancer | + |  | ++
432: peptide found in ABCC4 (gene looked up) (TLIEESAKV; listed as Homo sapiens) [compound 432] |  | Prostate |  | +++ |  | +
171: peptide found in KLK7 (gene looked up) (LLLPLQILL; listed as Homo sapiens) [compound 171] |  | SCLC |  | +++ | HNSCC | +++
183: peptide found in RNF213 (gene looked up) (FGLDLVTEL; listed as Homo sapiens) [compound 183] |  | NSCLC, SCLC, RCC, GC, PC, Leukemia, BrCa, Melanoma |  | ++ | CLL, Urinary Bladder Cancer, Uterine Cancer, AML, NHL, HNSCC | ++
446: peptide found in EYA2 (gene looked up) (QLIPALAKV; listed as Homo sapiens) [compound 446] |  | NSCLC, SCLC, PrC, BrCa, MCC, Uterine Cancer | Brain Cancer | +++ |  | +++
198 (KTINKVPTV; listed as Homo sapiens) [compound 198] | ++ (>= 100 = ++) | NSCLC, HCC | SCLC, Brain Cancer, CRC, Urinary Bladder Cancer, Uterine Cancer, HNSCC | +++ |  | 
551: peptide found in NCAPD3 (gene looked up) (KLYESLLPFA; listed as Homo sapiens) [compound 551] |  | SCLC, HCC, PrC, Melanoma | CLL, BRCA, Urinary Bladder Cancer, Gallbladder Cancer and Bile Duct Cancer, AML, NHL, HNSCC | ++ |  | +
629: peptide found in NUP205 (gene looked up) (HLLNESPML; listed as Homo sapiens) [compound 629] |  | SCLC, Esophageal Cancer | RCC, PC, BRCA, Melanoma, Uterine Cancer, Gallbladder Cancer and Bile Duct Cancer, AML | ++ |  | +
210: peptide found in UNG (gene looked up) (LLLNAVLTV; listed as Homo sapiens) [compound 210] |  | Urinary bladder Cancer | SCLC, AML, NHL | ++ |  | +
173: peptide found in KIF15 (gene looked up) (LLDSASAGLYL; listed as Homo sapiens) [compound 173] |  |  |  | +++ | SCLC, Uterine Cancer, AML, NHL | +++
427 (ALLPLSPYL; listed as Homo sapiens) [compound 427] | +++ (>= 1,000 +++) | NSCLC, SCLC, HCC, PC, BrCa, Uterine Cancer | Gallbladder Cancer and Bile Duct Cancer | +++ |  | 
235: peptide found in CCNE1 (gene looked up) (YLNDLHEVLL; listed as Homo sapiens) [compound 235] |  | Esophageal Cancer, Uterine Cancer, Gallbladder Cancer, Bile Duct Cancer | NSCLC, Urinary Bladder Cancer | +++ |  | ++
631: peptide found in PRKDC (gene looked up) (FLDVFLPRV; listed as Homo sapiens) [compound 631] |  | PC, Leukemia, Melanoma, Esophageal Cancer | SCLC, CLL, NHL | + |  | +
